Earlier results on one molecule are cited in patent publication US20100056488A1, “CORTICOSTEROID CONJUGATES AND USES THEREOF” (The McLean Hospital Corporation, priority 2002, published 2010).

The test system of the series is cortisol production or ACTH. The note with it: suppression of cortisol production or ACTH.

As to `C[C@@H]1C[C@H]2[C@@H]3CCC4=CC(=O)C=C[C@]4(C)[C@@]3(F)[C@@H](O)C[C@]2(C)[C@@]1(O)C(=O)COP(=O)(O)O` [dexamethasone sodium phosphate], the CNS activity entry is “CNS active”.
